These are yes or no findings as the source states them, for the method shown. For some of these results: In cells and extracts the contact can be indirect. Some results given as binding are weak or reduced against the parent protein; the word gives no strength.
Columns and labels:
[1] = molecular target: TIM-3 (T cell immunoglobulin and mucin-domain containing protein 3) (human (endogenous in primary human CD8+ T cells)) (UniProt Q8TDQ0); test: co-IP; unstimulated (basal state) CD8+/MART-1+ primary human T cells; ~2 mg lysate, biotinylated anti-TIM-3 polyclonal antibody on magnetic streptavidin beads; capillary electrophoresis western
[2] = molecular target: TIM-3 (T cell immunoglobulin and mucin-domain containing protein 3) (human (endogenous in primary human CD8+ T cells)) (UniProt Q8TDQ0); test: co-IP; CD8+/MART-1+ primary human T cells stimulated 15 min with anti-CD3/CD28 beads; ~2 mg lysate, biotinylated anti-TIM-3 polyclonal antibody on magnetic streptavidin beads; capillary electrophoresis western
[3] = molecular target: p85α PI-3K subunit (spotted on the ProtoArray) (human) (UniProt P27986); test: peptide or protein array; biotinylated TIM-3 peptides at 2.5 and 25 μM probed on 9,000 human proteins printed on the Life Technologies ProtoArray (Small Molecule-Protein Interaction profiling service); data not shown; both purified

By UniProt entry, the sequences of proteins in these tests, tags left out. Residues count along the entry.
UniProt Q8TDQ0, residues 22-301: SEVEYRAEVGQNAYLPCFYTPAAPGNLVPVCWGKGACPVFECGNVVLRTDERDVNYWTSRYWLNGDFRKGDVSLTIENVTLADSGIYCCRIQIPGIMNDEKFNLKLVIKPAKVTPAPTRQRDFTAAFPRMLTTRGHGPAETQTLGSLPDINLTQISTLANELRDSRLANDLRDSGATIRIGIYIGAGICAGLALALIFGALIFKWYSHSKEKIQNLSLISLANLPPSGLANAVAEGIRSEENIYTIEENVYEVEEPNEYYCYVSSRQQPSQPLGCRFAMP
UniProt P27986: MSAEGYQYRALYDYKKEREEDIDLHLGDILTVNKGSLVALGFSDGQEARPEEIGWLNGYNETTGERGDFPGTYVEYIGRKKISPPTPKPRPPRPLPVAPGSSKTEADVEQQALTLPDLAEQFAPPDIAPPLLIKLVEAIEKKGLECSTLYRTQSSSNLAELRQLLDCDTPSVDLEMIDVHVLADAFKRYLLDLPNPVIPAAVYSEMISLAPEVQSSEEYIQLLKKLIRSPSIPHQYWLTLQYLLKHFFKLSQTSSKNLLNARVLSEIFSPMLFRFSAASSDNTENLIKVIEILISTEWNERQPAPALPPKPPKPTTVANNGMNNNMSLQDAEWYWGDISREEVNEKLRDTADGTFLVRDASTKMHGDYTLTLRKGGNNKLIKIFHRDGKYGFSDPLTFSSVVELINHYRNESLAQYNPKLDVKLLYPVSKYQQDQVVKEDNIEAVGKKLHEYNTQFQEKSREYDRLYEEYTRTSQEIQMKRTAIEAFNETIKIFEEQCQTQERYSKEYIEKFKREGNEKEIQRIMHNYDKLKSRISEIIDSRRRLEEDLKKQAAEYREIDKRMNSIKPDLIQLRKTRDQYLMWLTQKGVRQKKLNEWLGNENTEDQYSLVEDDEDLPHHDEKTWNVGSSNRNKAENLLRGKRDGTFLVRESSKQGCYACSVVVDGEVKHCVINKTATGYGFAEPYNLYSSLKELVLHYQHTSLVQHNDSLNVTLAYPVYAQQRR
UniProt P43403: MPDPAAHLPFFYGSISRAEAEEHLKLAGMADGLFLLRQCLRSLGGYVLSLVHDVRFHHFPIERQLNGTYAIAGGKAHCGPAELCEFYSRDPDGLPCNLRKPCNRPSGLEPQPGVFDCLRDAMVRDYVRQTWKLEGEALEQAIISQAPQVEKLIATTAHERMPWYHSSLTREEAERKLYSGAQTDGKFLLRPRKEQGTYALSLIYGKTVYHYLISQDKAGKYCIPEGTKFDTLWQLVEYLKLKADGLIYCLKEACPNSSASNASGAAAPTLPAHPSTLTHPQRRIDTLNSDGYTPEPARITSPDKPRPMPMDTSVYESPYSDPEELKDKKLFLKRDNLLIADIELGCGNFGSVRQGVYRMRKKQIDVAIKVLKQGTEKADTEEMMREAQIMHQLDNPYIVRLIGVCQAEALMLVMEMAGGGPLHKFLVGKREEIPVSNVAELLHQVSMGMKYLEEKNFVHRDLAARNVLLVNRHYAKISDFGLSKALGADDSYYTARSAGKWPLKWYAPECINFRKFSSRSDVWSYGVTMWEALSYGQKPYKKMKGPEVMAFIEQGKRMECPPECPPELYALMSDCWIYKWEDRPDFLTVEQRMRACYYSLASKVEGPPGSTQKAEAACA

Molecule	binding [1]	further results
p85α PI-3K subunit (endogenous) (from UniProt P27986 1-724)	binds	
PLCγ1 (Phospholipase C) (endogenous) (enzyme, UniProt P19174 1-1290) MAGAASPCANGCGPGAPSDAEVLHLCRSLEVGTVMTLFYSKKSQRPERKTFQVKLETRQITWSRGADKIEGAIDIREIKEIRPGKTSRDFDRYQEDPAFRPDQSHCFVILYGMEFRLKTLSLQATSEDEVNMWIKGLTWLMEDTLQAPTPLQIERWLRKQFYSVDRNREDRISAKDLKNMLSQVNYRVPNMRFLRERLTDLEQRSGDITYGQFAQLYRSLMYSAQKTMDLPFLEASTLRAGERPELCRVSLPEFQQFLLDYQGELWAVDRLQVQEFMLSFLRDPLREIEEPYFFLDEFVTFLFSKENSVWNSQLDAVCPDTMNNPLSHYWISSSHNTYLTGDQFSSESSLEAYARCLRMGCRCIELDCWDGPDGMPVIYHGHTLTTKIKFSDVLHTIKEHAFVASEYPVILSIEDHCSIAQQRNMAQYFKKVLGDTLLTKPVEISADGLPSPNQLKRKILIKHKKLAEGSAYEEVPTSMMYSENDISNSIKNGILYLEDPVNHEWYPHYFVLTSSKIYYSEETSSDQGNEDEEEPKEVSSSTELHSNEKWFHGKLGAGRDGRHIAERLLTEYCIETGAPDGSFLVRESETFVGDYTLSFWRNGKVQHCRIHSRQDAGTPKFFLTDNLVFDSLYDLITHYQQVPLRCNEFEMRLSEPVPQTNAHESKEWYHASLTRAQAEHMLMRVPRDGAFLVRKRNEPNSYAISFRAEGKIKHCRVQQEGQTVMLGNSEFDSLVDLISYYEKHPLYRKMKLRYPINEEALEKIGTAEPDYGALYEGRNPGFYVEANPMPTFKCAVKALFDYKAQREDELTFIKSAIIQNVEKQEGGWWRGDYGGKKQLWFPSNYVEEMVNPVALEPEREHLDENSPLGDLLRGVLDVPACQIAIRPEGKNNRLFVFSISMASVAHWSLDVAADSQEELQDWVKKIREVAQTADARLTEGKIMERRKKIALELSELVVYCRPVPFDEEKIGTERACYRDMSSFPETKAEKYVNKAKGKKFLQYNRLQLSRIYPKGQRLDSSNYDPLPMWICGSQLVALNFQTPDKPMQMNQALFMTGRHCGYVLQPSTMRDEAFDPFDKSSLRGLEPCAISIEVLGARHLPKNGRGIVCPFVEIEVAGAEYDSTKQKTEFVVDNGLNPVWPAKPFHFQISNPEFAFLRFVVYEEDMFSDQNFLAQATFPVKGLKTGYRAVPLKNNYSEDLELASLLIKIDIFPAKENGDLSPFSGTSLRERGSDASGQLFHGRAREGSFESRYQQPFEDFRISQEHLADHFDSRERRAPRRTRVNGDNRL		binding [2]: binds
Vav-1 (endogenous) (protein, UniProt P15498 1-845) MELWRQCTHWLIQCRVLPPSHRVTWDGAQVCELAQALRDGVLLCQLLNNLLPHAINLREVNLRPQMSQFLCLKNIRTFLSTCCEKFGLKRSELFEAFDLFDVQDFGKVIYTLSALSWTPIAQNRGIMPFPTEEESVGDEDIYSGLSDQIDDTVEEDEDLYDCVENEEAEGDEIYEDLMRSEPVSMPPKMTEYDKRCCCLREIQQTEEKYTDTLGSIQQHFLKPLQRFLKPQDIEIIFINIEDLLRVHTHFLKEMKEALGTPGAANLYQVFIKYKERFLVYGRYCSQVESASKHLDRVAAAREDVQMKLEECSQRANNGRFTLRDLLMVPMQRVLKYHLLLQELVKHTQEAMEKENLRLALDAMRDLAQCVNEVKRDNETLRQITNFQLSIENLDQSLAHYGRPKIDGELKITSVERRSKMDRYAFLLDKALLICKRRGDSYDLKDFVNLHSFQVRDDSSGDRDNKKWSHMFLLIEDQGAQGYELFFKTRELKKKWMEQFEMAISNIYPENATANGHDFQMFSFEETTSCKACQMLLRGTFYQGYRCHRCRASAHKECLGRVPPCGRHGQDFPGTMKKDKLHRRAQDKKRNELGLPKMEVFQEYYGLPPPPGAIGPFLRLNPGDIVELTKAEAEQNWWEGRNTSTNEIGWFPCNRVKPYVHGPPQDLSVHLWYAGPMERAGAESILANRSDGTFLVRQRVKDAAEFAISIKYNVEVKHIKIMTAEGLYRITEKKAFRGLTELVEFYQQNSLKDCFKSLDTTLQFPFKEPEKRTISRPAVGSTKYFGTAKARYDFCARDRSELSLKEGDIIKILNKKGQQGWWRGEIYGRVGWFPANYVEEDYSEYC	binds	
SEENIYTIEENVYEVEEP (biotin on the N-terminus; the tyrosine residues phosphorylated (Y265, Y272))		binding [3]: binds

The next lines start with results.

binding [1]	Molecule	further results
binds	ZAP-70 (endogenous) (from UniProt P43403 1-619) (enzyme)	
binds	3BP2 (SH3BP2) (endogenous) (protein, UniProt P78314 1-561) MAAEEMHWPVPMKAIGAQNLLTMPGGVAKAGYLHKKGGTQLQLLKWPLRFVIIHKRCVYYFKSSTSASPQGAFSLSGYNRVMRAAEETTSNNVFPFKIIHISKKHRTWFFSASSEEERKSWMALLRREIGHFHEKKDLPLDTSDSSSDTDSFYGAVERPVDISLSPYPTDNEDYEHDDEDDSYLEPDSPEPGRLEDALMHPPAYPPPPVPTPRKPAFSDMPRAHSFTSKGPGPLLPPPPPKHGLPDVGLAAEDSKRDPLCPRRAEPCPRVPATPRRMSDPPLSTMPTAPGLRKPPCFRESASPSPEPWTPGHGACSTSSAAIMATATSRNCDKLKSFHLSPRGPPTSEPPPVPANKPKFLKIAEEDPPREAAMPGLFVPPVAPRPPALKLPVPEAMARPAVLPRPEKPQLPHLQRSPPDGQSFRSFSFEKPRQPSQADTGGDDSDEDYEKVPLPNSVFVNTTESCEVERLFKATSPRGEPQDGLYCIRNSSTKSGKVLVVWDETSNKVRNYRIFEKDSKFYLEGEVLFVSVGSMVEHYHTHVLPSHQSLLLRHPYGYTGPR	
binds	SLP-76 (endogenous) (protein, UniProt Q13094 1-533) MALRNVPFRSEVLGWDPDSLADYFKKLNYKDCEKAVKKYHIDGARFLNLTENDIQKFPKLRVPILSKLSQEINKNEERRSIFTRKPQVPRFPEETESHEEDNGGWSSFEEDDYESPNDDQDGEDDGDYESPNEEEEAPVEDDADYEPPPSNDEEALQNSILPAKPFPNSNSMYIDRPPSGKTPQQPPVPPQRPMAALPPPPAGRNHSPLPPPQTNHEEPSRSRNHKTAKLPAPSIDRSTKPPLDRSLAPFDREPFTLGKKPPFSDKPSIPAGRSLGEHLPKIQKPPLPPTTERHERSSPLPGKKPPVPKHGWGPDRRENDEDDVHQRPLPQPALLPMSSNTFPSRSTKPSPMNPLPSSHMPGAFSESNSSFPQSASLPPYFSQGPSNRPPIRAEGRNFPLPLPNKPRPPSPAEEENSLNEEWYVSYITRPEAEAALRKINQDGTFLVRDSSKKTTTNPYVLMVLYKDKVYNIQIRYQKESQVYLLGTGLRGKEDFLSVSDIIDYFRKMPLLLIDGKNRGSRYQCTLTHAAGYP	
